In this test the target is EGFP-tagged Sra1 (murine) (UniProt Q7TMB8). In words: co-IP; GFP-TrapA beads precipitate EGFP-tagged Sra1 (EGFP alone as control) from lysates of transfected B16-F1 wild-type or Nap1 KO clone 21 cells; IP buffer 140 mM KCl, 50 mM Tris-HCl pH 7.4, 50 mM NaF, 10 mM Na4P2O7, 2 mM MgCl2, 1% Triton-X100; 1 h at 4°C; endogenous WRC subunits detected by western ….

Protein sequences, listed by entry. Tags and fused reporters are not part of them.
UniProt Q7TMB8: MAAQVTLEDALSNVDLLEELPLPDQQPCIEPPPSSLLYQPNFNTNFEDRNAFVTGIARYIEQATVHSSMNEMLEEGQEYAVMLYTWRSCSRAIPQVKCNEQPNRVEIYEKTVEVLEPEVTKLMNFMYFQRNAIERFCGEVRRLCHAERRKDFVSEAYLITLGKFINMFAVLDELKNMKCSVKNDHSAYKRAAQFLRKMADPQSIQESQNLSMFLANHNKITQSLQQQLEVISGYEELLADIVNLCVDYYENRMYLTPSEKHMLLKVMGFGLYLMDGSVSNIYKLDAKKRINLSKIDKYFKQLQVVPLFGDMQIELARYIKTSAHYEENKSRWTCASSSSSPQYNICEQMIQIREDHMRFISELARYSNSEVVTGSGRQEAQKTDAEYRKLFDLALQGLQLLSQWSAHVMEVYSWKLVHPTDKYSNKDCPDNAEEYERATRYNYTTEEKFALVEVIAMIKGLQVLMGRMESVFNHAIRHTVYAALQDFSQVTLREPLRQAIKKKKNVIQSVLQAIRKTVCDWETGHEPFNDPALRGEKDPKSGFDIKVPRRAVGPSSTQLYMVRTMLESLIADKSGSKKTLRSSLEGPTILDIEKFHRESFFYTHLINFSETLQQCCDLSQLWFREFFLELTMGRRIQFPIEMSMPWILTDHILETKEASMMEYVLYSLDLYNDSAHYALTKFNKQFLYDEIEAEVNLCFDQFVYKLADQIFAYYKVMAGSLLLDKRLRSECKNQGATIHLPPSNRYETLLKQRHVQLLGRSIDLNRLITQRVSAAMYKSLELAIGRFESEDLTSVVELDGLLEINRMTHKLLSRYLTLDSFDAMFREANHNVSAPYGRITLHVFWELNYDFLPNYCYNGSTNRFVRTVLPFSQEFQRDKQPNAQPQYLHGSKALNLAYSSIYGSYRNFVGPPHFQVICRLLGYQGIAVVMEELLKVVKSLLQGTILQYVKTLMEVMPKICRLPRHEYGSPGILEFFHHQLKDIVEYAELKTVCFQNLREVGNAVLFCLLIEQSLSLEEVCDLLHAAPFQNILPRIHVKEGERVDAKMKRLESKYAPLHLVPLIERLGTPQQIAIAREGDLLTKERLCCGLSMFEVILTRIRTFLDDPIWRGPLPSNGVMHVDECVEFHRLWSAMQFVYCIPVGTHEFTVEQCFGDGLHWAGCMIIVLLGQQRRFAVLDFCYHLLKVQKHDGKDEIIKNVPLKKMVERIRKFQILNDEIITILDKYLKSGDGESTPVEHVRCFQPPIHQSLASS

Results are given in words; binding and its absence hold for the method and conditions named. In cells and extracts the contact can be indirect. Some results given as binding are weak or reduced against the parent protein; the word gives no strength.

B1: Hem1 (protein, UniProt Q8K1X4 1-1134)
chain: MSLTSAYQLKLAEKLTILNDRGQGVLIRMYNIKKTCSDSKSKPPFLLEKSMESCLKYINKKFPNIDVRNSTQHLGPVHREKAEIIRFLTNYYQSFVDVMEFRDHVYELLNTIDACQCHFDINLNFDFTRSYLDLIVTYTSVILLLSRIEDRRILIGMYNCAHEMLHGHSDPSFARLGQMVLEYDHPLKKLTEEFGPHTKAVSGALLSLHFLFVRRNQGAEQWRSAQLLSLISSPPAMINPANSDTMACEYLSVEVMERWIIIGFLLCHGCLNSNSQCQKLWKLCLEGSLYITLIREDVLQVHKVTEDLFSSLKGYSKRVADIKESKEHAITNSGQFHCQRRQFLRTAVKELETVLNDEPGLLGPKALFAFMALSFIRDEVTWLVRHTENVTKTKTPEDYADSSIAELLFLLEEIRALVRRHIKVIQQYHLQYLARFDVLVLSDIIQNLSVCPEEESVIMSSFVSILSSLNLKQVDNEEKFDFSGLRLDWFRLQAYTSVSKAPLHLHENPDLAKVMNLIIFHSQMLDSVEKMLVETSDLSTFCFHLRTFEKMFATTLEEPTMLRYTIAFPLICAHFVHCVHEMCPEEYPHLKNHGLHHCNSFLEDLAKQTSNCVLEICAEQRNLNEQLLPKHCATTISKAKNKKSMKQRQAPRKGEPERDKPGAESHRKNRSLVTNMDKLHLNLTELALAMNHVHSFSVFEHTIFPSEYLSSHLEARLNRAIVTLAGYNATTQEILRPSELLAGVKAYISFIQSLAQFLGADASRIVRNALLQQTQPLDSSGEQTVTTLYTNWYLESLLRQASSGAIVLSPAMQAFISLPRDGEQNFSAEEFSDISEMRALAEILGPYGMKFLSENLMWHVTSQIVELKKLVVENMDILVQIRSNFSKPELMASLLPQLTGAENVLKRMTIIGVILSFRAMAQEGLQEVFSAHCPFLMGPIECLKEFVTPDTDIKVTLSVFELACAAGVSCDIDPALVAAIANLKADNSSPEEEYKVACLLLIFLAVSLPLLATDPSSFFSIEKDGYNNNIHCLTKAIIQVSAALFTLYNKNIETHLKEFLVVASVSLLQLGQETDKLKTRNRESISLLMRLVVEESPFLTLDMLESCFPYVLLRNAYREVSRAFYLNRLPASSH
On to B1, for which the binding entry is given as “binds”.

The record behind these values is paper PMC9511706.
